PubChem BioAssay AID1259291 | Sanger Institute, 2017

Purpose: 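Search for gene knock-downs that act synergistically alongside anchor drugs to kill cells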 (primary screen)
Cells: HT29 human colorectal cancer cells
Reagents: siRNA pool against human genes
Challenge: anchor drugs added a day after transfection: BYL719 at 1 µM, cetuximab at 5 µg/ml or trametinib at 10 nM, or DMSO vehicle alone
Measurement: 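Cell viability as a fraction of the non-targeting pool, mean of replicates, robust z-scores from control wells; synergy scores for BYL719 (1 µM), cetuximab (5 µg/ml), trametinib (10 nM)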
Direction: robust z-score, knock-down alone and viability, knock-down alone: higher = more viable cells; synergy score with BYL719: higher = stronger synergistic killing with drug
Call rule: 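Essential when the robust z-score for knock-down without any drug is below -3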
Meaning of the calls: active = essential (knock-down alone); inactive = no change alone
The whole screen tested 794 reagents; this is an unselected part. 15 of them (1.9%) count as active. 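Calls rest on knock-down alone; drug synergy scores do not affect them; drugs added a day post-transfection, DMSO vehicle as comparison.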 No viability above 1 is reported: the scale is capped. Further read-outs or replicates are left out here. The record does not give: the amount of reagent, the time to read-out.

The opening 3 entries, to show the layout:
gene | robust z-score, knock-down alone | viability, knock-down alone (fraction of control) | synergy score with BYL719 | outcome
GK (GeneID 2710) | 0.552 | 1 | -0.0872 | inactive
PTK2 (GeneID 5747) | 0.552 | 1 | -0.0496 | inactive
MAP3K4 (GeneID 4216) | 0.552 | 1 | -0.0408 | inactive

Results, from the start:
gene | robust z-score, knock-down alone | viability, knock-down alone (fraction of control) | synergy score with BYL719 | outcome
GK (GeneID 2710) | 0.552 | 1 | -0.0872 | inactive
PTK2 (GeneID 5747) | 0.552 | 1 | -0.0496 | inactive
MAP3K4 (GeneID 4216) | 0.552 | 1 | -0.0408 | inactive
PKDCC (GeneID 91461) | 0.552 | 1 | 0.0415 | inactive
SRP72 (GeneID 6731) | -0.11 | 0.959 | 0.158 | inactive
MAP3K15 (GeneID 389840) | 0.552 | 1 | -0.0108 | inactive
GRK7 (GeneID 131890) | 0.552 | 1 | 0.00579 | inactive
MAP2K7 (GeneID 5609) | -3.63 | 0.741 | -0.0759 | active
CDKN1A (GeneID 1026) | 0.552 | 1 | -0.0112 | inactive
PANK4 (GeneID 55229) | 0.552 | 1 | 0.113 | inactive
HK3 (GeneID 3101) | 0.552 | 1 | -0.133 | inactive
RIOK2 (GeneID 55781) | -0.837 | 0.914 | -0.111 | inactive
NEK8 (GeneID 284086) | 0.552 | 1 | 0.00719 | inactive
VRK1 (GeneID 7443) | -0.672 | 0.924 | -0.125 | inactive
CDK10 (GeneID 8558) | 0.337 | 0.987 | 0.0121 | inactive
BCOR (GeneID 54880) | 0.376 | 0.989 | 0.0122 | inactive
AXIN2 (GeneID 8313) | -1.06 | 0.9 | -0.113 | inactive
MYO3A (GeneID 53904) | -1.17 | 0.893 | 0.12 | inactive
PKMYT1 (GeneID 9088) | 0.552 | 1 | 0.0209 | inactive
MAPKAPK3 (GeneID 7867) | -2.47 | 0.813 | -0.00591 | inactive
NEK9 (GeneID 91754) | -0.147 | 0.957 | -0.00585 | inactive
KSR1 (GeneID 8844) | -0.38 | 0.942 | 0.106 | inactive
ALPK2 (GeneID 115701) | 0.552 | 1 | -0.0765 | inactive
DDR1 (GeneID 780) | 0.552 | 1 | -0.158 | inactive
PAK5 (GeneID 57144) | -0.124 | 0.958 | -0.158 | inactive
PHKG1 (GeneID 5260) | 0.334 | 0.986 | 0.0373 | inactive
STK24 (GeneID 8428) | 0.552 | 1 | 0.083 | inactive
PRKAA2 (GeneID 5563) | 0.552 | 1 | -0.0415 | inactive
NUAK2 (GeneID 81788) | 0.552 | 1 | 0.123 | inactive
ALDH18A1 (GeneID 5832) | 0.536 | 0.999 | -0.0305 | inactive
CDK13 (GeneID 8621) | 0.552 | 1 | 0.0898 | inactive
ZAP70 (GeneID 7535) | -1.1 | 0.897 | -0.138 | inactive
DCK (GeneID 1633) | -1.6 | 0.866 | 0.237 | inactive
TTBK1 (GeneID 84630) | -0.192 | 0.954 | -0.138 | inactive
